These are yes or no findings as the source states them, for the method shown. In cells and extracts the contact can be indirect. Some binding calls cover weakened binding; strength is not graded here.
Assays:
[1] = target: RPA194 (human (endogenous in human fibroblasts)) (UniProt O95602); assay: co-IP; co-immunoprecipitation of TFIIE subunits (TFIIEα, TFIIEβ) and RNA polymerase I subunits (RPA194, RPA135); cells, baits and buffers not described in the methods shown
[2] = target: RPA135 (human (endogenous in human fibroblasts)) (UniProt Q9H9Y6); assay: as above

The chains behind the UniProt entries cited, without tags or fusion partners.
UniProt O95602: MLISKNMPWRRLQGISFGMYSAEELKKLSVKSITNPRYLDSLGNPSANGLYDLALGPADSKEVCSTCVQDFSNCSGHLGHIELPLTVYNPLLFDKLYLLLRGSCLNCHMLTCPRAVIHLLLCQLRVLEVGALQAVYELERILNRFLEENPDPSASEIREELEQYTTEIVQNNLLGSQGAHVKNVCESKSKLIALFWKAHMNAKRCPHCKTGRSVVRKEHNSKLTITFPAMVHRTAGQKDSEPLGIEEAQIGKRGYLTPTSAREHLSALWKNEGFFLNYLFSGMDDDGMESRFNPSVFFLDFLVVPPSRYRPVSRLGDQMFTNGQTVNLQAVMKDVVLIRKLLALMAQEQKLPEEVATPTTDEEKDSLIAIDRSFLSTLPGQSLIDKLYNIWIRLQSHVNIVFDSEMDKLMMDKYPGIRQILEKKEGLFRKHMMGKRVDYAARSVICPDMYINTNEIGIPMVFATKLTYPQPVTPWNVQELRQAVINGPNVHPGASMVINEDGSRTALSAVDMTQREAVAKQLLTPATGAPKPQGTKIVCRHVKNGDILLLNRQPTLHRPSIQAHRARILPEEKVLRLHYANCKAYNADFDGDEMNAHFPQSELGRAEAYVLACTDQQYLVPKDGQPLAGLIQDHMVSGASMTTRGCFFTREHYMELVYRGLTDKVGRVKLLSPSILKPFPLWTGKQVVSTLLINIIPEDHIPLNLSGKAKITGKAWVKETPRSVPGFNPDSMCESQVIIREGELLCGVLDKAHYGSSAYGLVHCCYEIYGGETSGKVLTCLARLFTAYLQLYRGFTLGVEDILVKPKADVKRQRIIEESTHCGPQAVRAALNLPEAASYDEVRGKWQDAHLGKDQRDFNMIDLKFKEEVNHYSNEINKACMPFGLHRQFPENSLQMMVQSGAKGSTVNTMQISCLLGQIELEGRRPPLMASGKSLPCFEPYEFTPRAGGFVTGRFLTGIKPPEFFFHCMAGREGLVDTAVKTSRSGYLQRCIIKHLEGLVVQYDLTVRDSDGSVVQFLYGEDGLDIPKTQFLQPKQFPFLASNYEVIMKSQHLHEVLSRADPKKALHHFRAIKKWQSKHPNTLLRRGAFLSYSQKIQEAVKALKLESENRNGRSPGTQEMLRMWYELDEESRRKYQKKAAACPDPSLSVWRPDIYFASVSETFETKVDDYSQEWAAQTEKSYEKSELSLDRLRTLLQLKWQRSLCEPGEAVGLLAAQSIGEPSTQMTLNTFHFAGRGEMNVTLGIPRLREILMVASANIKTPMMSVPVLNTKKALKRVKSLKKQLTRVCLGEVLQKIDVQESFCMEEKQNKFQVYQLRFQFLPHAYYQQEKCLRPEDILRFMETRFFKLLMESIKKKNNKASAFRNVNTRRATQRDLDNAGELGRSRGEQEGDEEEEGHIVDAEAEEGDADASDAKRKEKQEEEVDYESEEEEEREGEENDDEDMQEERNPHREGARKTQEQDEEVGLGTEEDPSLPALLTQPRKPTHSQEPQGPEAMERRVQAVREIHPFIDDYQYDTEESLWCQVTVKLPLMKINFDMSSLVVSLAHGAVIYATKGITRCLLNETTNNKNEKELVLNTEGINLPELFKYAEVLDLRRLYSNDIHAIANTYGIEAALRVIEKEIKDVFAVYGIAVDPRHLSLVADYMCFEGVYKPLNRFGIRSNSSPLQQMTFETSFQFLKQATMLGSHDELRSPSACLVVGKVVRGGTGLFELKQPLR
UniProt Q9H9Y6: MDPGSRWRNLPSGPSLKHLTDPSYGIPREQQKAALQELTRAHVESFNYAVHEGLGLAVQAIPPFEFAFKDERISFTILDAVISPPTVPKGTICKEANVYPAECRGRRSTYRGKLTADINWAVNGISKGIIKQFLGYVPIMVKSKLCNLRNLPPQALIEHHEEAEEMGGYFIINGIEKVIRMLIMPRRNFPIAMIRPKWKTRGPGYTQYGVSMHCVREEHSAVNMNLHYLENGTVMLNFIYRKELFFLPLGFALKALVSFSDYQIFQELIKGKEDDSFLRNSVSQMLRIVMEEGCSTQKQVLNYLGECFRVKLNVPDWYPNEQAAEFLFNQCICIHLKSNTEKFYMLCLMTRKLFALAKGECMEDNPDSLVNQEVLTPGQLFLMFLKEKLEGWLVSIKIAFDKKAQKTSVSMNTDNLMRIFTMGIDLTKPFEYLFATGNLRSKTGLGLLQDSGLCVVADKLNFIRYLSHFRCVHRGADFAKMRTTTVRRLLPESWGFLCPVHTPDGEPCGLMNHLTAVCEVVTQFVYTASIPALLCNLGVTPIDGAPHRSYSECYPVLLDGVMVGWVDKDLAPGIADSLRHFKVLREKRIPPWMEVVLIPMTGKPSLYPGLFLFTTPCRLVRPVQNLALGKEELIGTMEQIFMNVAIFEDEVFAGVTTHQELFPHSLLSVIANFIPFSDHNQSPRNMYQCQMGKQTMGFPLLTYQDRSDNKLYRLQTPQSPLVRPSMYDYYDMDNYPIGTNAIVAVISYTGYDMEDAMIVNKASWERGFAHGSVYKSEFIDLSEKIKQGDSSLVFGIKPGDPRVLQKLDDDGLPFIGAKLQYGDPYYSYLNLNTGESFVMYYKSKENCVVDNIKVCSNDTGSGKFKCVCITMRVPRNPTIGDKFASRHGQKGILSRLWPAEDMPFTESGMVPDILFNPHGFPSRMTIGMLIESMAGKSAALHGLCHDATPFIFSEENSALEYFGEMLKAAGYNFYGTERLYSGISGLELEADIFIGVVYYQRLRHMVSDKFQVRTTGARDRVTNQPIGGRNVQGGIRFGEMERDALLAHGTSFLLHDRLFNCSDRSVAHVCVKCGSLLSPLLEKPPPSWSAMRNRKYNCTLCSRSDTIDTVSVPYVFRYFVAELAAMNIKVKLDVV

binding [1] | binding [2] | Molecule
binds | – | RPA135 (from UniProt Q9H9Y6 1-1135)
no binding | no binding | TFIIEβ (protein, UniProt P29084 1-291) MDPSLLRERELFKKRALSTPVVEKRSASSESSSSSSKKKKTKVEHGGSSGSKQNSDHSNGSFNLKALSGSSGYKFGVLAKIVNYMKTRHQRGDTHPLTLDEILDETQHLDIGLKQKQWLMTEALVNNPKIEVIDGKYAFKPKYNVRDKKALLRLLDQHDQRGLGGILLEDIEEALPNSQKAVKALGDQILFVNRPDKKKILFFNDKSCQFSVDEEFQKLWRSVTVDSMDEEKIEEYLKRQGISSMQESGPKKVAPIQRRKKPASQKKRRFKTHNEHLAGVLKDYSDITSSK
